This experiment concerns the target T1, Ubiquitin-specific peptidase 8 (USP8), endogenous (human (endogenous in HCCC9810 and RBE)) (UniProt P40818).
T1 sequence: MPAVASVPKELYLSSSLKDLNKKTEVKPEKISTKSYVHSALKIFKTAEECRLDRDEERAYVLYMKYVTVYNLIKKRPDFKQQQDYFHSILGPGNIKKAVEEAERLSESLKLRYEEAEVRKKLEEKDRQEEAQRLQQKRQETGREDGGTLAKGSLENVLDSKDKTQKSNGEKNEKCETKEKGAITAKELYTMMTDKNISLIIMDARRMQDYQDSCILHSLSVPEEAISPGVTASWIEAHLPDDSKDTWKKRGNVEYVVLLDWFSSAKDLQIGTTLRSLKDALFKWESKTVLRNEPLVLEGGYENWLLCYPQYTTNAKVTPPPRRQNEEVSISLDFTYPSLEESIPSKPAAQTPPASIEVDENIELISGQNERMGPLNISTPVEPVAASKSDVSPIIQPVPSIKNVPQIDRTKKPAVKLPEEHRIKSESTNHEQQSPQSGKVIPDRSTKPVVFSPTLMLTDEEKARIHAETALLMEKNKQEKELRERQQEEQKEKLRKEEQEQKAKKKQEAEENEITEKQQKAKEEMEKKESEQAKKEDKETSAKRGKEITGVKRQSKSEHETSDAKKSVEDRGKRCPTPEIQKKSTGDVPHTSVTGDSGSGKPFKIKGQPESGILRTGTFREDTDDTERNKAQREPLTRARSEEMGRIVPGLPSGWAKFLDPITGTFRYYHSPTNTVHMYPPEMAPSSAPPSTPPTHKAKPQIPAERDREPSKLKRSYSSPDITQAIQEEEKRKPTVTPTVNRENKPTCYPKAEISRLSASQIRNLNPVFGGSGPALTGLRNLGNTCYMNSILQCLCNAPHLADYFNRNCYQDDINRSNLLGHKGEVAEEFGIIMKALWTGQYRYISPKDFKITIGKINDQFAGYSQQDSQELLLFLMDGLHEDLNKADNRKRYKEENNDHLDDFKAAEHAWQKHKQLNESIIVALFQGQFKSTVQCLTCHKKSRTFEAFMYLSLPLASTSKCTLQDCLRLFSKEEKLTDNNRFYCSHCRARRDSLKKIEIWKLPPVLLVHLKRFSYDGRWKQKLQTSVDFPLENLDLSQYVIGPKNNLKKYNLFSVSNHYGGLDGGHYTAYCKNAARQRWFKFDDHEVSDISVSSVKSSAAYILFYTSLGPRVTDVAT
The experiment is described as follows: affinity purification with mass spectrometry; HCCC9810 cells lysed in RIPA buffer with protease inhibitors, precleared with rabbit IgG 4 h, overnight immunoprecipitation with USP8 antibody and Protein A/G PLUS-Agarose at 4 °C, LC-MS.

Results are given in words; binding and its absence hold for the method and conditions named. Binding seen in cells or lysates may run through a third protein. These calls come from enrichment with a bait or labelling near it, and not all partners need be listed.

B1: O-GlcNAc transferase (OGT), endogenous (enzyme, UniProt O15294 1-1046)
chain: MASSVGNVADSTEPTKRMLSFQGLAELAHREYQAGDFEAAERHCMQLWRQEPDNTGVLLLLSSIHFQCRRLDRSAHFSTLAIKQNPLLAEAYSNLGNVYKERGQLQEAIEHYRHALRLKPDFIDGYINLAAALVAAGDMEGAVQAYVSALQYNPDLYCVRSDLGNLLKALGRLEEAKACYLKAIETQPNFAVAWSNLGCVFNAQGEIWLAIHHFEKAVTLDPNFLDAYINLGNVLKEARIFDRAVAAYLRALSLSPNHAVVHGNLACVYYEQGLIDLAIDTYRRAIELQPHFPDAYCNLANALKEKGSVAEAEDCYNTALRLCPTHADSLNNLANIKREQGNIEEAVRLYRKALEVFPEFAAAHSNLASVLQQQGKLQEALMHYKEAIRISPTFADAYSNMGNTLKEMQDVQGALQCYTRAIQINPAFADAHSNLASIHKDSGNIPEAIASYRTALKLKPDFPDAYCNLAHCLQIVCDWTDYDERMKKLVSIVADQLEKNRLPSVHPHHSMLYPLSHGFRKAIAERHGNLCLDKINVLHKPPYEHPKDLKLSDGRLRVGYVSSDFGNHPTSHLMQSIPGMHNPDKFEVFCYALSPDDGTNFRVKVMAEANHFIDLSQIPCNGKAADRIHQDGIHILVNMNGYTKGARNELFALRPAPIQAMWLGYPGTSGALFMDYIITDQETSPAEVAEQYSEKLAYMPHTFFIGDHANMFPHLKKKAVIDFKSNGHIYDNRIVLNGIDLKAFLDSLPDVKIVKMKCPDGGDNADSSNTALNMPVIPMNTIAEAVIEMINRGQIQITINGFSISNGLATTQINNKAATGEEVPRTIIVTTRSQYGLPEDAIVYCNFNQLYKIDPSTLQMWANILKRVPNSVLWLLRFPAVGEPNIQQYAQNMGLPQNRIIFSPVAPKEEHVRRGQLADVCLDTPLCNGHTTGMDVLWAGTPMVTMPGETLASRVAASQLTCLGCLELIAKNRQEYEDIAVKLGTDLEYLKKVRGKVWKQRISSPLFNTKQYTMELERLYLQMWEHYAAGNKPDHMIKPVEVTESA
B1: the binding result was “binds”.

The record behind these values is PMC11229306.
